No constants are given. Whether binding was seen depends on the method and setting. For part of these data: In cells and extracts the contact can be indirect. Some binding calls cover weakened binding; strength is not graded here. For part of these data: Sequences can lack the tags named with a protein.
How the values were obtained:
[1] = target: KDR (VEGFR2) on the surface of PAE-KDR cells (human) (UniProt P35968); assay: co-immunoprecipitation from lysates of PAE-KDR-TIMP3 cells
[2] = target: soluble KDR-IgG (receptor IgG chimeric protein) (UniProt P35968); assay: in vitro cross-linking
[3] = target: soluble KDR-IgG (receptor IgG chimeric protein) (UniProt P35968); assay: cross-linking, SDS-PAGE and autoradiography
[4] = target: soluble KDR-IgG (receptor IgG chimeric protein) (UniProt P35968); assay: cross-linking, SDS-PAGE and autoradiography (figure legend)
[5] = target: endogenous KDR in extracts of human placenta (human) (UniProt P35968); assay: co-immunoprecipitation from extracts of human placenta
[6] = target: endogenous KDR in extracts of human placenta (human) (UniProt P35968); assay: co-immunoprecipitation from human placenta (figure legend)

Chains of the proteins cited; added tags and fusions are not shown. Lines headed by an entry give the natural chain unless they say otherwise; changes in a name come on top. Residues count along the entry.
UniProt P35968: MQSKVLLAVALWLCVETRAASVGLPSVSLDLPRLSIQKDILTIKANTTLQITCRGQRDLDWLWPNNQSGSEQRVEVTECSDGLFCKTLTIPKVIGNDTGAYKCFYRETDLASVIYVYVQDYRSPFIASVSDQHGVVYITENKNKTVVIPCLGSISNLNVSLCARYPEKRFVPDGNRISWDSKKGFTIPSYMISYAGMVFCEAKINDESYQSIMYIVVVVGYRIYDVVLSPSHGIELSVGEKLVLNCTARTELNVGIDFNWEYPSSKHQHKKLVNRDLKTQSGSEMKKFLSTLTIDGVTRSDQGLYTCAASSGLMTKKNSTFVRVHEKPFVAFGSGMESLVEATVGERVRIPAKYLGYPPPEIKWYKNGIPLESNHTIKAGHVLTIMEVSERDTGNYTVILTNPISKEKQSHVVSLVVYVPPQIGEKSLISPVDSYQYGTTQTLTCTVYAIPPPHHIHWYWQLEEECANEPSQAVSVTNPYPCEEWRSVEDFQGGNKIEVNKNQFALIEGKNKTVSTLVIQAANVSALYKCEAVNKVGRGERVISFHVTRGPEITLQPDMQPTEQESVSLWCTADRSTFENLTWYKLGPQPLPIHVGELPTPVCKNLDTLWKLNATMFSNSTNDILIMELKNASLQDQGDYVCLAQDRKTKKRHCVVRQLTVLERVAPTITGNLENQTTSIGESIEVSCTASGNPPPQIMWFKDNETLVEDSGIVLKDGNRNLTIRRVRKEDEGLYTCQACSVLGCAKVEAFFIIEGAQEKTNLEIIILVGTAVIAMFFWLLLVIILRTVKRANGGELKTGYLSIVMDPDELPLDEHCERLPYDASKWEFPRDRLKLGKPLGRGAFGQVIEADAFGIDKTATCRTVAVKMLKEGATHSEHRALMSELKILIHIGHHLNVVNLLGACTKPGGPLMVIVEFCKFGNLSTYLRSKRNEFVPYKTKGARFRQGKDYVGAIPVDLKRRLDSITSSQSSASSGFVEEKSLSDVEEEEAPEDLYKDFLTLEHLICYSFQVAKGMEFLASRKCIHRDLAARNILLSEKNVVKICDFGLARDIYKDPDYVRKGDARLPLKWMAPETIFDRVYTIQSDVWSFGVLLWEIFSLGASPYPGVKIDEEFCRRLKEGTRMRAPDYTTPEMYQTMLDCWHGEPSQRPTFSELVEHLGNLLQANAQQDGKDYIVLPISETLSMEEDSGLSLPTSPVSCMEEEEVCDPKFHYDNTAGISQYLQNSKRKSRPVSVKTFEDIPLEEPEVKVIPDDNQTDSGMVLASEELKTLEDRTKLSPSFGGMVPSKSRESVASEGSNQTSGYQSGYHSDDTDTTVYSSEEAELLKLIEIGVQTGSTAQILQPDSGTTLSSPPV
endogenous KDR in extracts of human placenta: residues 20-1356 of P35968
soluble KDR-IgG (receptor IgG chimeric protein): residues 20-764 of P35968

B1: TIMP3 with C-terminal FLAG epitope, stably expressed in PAE-KDR-TIMP3 and PAE-PDGFR-β-TIMP3 cells (protein)
chain: CTCSPSHPQDAFCNSDIVIRAKVVGKKLVKEGPFGTLVYTIKQMKMYRGFTKMPHVQYIHTEASESLCGLKLEVNKYQYLLTGRVYDGKMYTGLCNFVERWDQLTLSQRKGLNYRYHLGCNCKIKSCYYLPCFVTSKNECLWTDMLSNFGYPGYQSKHYACIRQKGGYCSWYRGWAPPDKSIINATDPDYKDDDK
[1]
  binding: binds

B2: recombinant human TIMP3 (tissue inhibitor of metalloproteinases-3) (protein)
chain: CTCSPSHPQDAFCNSDIVIRAKVVGKKLVKEGPFGTLVYTIKQMKMYRGFTKMPHVQYIHTEASESLCGLKLEVNKYQYLLTGRVYDGKMYTGLCNFVERWDQLTLSQRKGLNYRYHLGCNCKIKSCYYLPCFVTSKNECLWTDMLSNFGYPGYQSKHYACIRQKGGYCSWYRGWAPPDKSIINATDP
[2]
  binding: binds
[3]
  binding: binds
[4]
  binding: binds

B3: endogenous TIMP3 in extracts of human placenta (protein, UniProt P35625 24-211, looked up)
chain: CTCSPSHPQDAFCNSDIVIRAKVVGKKLVKEGPFGTLVYTIKQMKMYRGFTKMPHVQYIHTEASESLCGLKLEVNKYQYLLTGRVYDGKMYTGLCNFVERWDQLTLSQRKGLNYRYHLGCNCKIKSCYYLPCFVTSKNECLWTDMLSNFGYPGYQSKHYACIRQKGGYCSWYRGWAPPDKSIINATDP
[5]
  binding: binds
[6]
  binding: binds

— patent US8431396
